No constants are given. Whether binding was seen depends on the method and setting. Some entries that bind do so weakly or less than the wild type.
Molecular target: HAB1 (Homology to ABI1), type 2 protein phosphatase (PP2C) (UniProt Q9CAJ0)
Test: yeast two-hybrid, ABA-dependent

The chains behind the UniProt entries cited, without tags or fusion partners. Where a name states a change or a piece, a line headed by the entry shows the natural chain unless it says otherwise. Residues count along the entry.
UniProt Q9CAJ0, residues 23-511: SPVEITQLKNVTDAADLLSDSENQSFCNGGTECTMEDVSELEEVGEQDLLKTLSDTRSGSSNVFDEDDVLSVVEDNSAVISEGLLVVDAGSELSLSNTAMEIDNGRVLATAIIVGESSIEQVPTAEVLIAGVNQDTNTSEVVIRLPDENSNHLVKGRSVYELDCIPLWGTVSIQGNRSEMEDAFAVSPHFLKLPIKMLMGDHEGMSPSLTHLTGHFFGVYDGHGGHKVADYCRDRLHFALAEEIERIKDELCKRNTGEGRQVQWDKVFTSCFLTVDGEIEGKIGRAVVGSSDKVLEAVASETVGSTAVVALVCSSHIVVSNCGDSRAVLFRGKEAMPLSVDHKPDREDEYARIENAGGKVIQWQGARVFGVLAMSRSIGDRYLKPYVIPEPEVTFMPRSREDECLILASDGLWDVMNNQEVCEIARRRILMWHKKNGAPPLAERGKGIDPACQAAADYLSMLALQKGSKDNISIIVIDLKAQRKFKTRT
UniProt O49686: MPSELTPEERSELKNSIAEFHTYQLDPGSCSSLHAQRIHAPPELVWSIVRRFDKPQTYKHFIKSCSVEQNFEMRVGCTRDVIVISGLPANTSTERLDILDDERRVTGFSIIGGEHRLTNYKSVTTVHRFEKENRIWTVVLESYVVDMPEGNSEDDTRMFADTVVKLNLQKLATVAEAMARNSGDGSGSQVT

binding, binds:
wild-type PYR1 (from UniProt O49686 1-191) (receptor)

Molecular target: HAB1 (Homology to ABI1), type 2 protein phosphatase (PP2C) (UniProt Q9CAJ0)
Test: yeast two-hybrid with HAB1, X-gal staining at low ABA; grade = strength of hypersensitivity

binding, binds:
PYR1 K170T (from UniProt O49686 1-191) (receptor)
PYR1 T162Y (from UniProt O49686 1-191) (receptor)
PYR1 M158I (from UniProt O49686 1-191) (receptor)
PYR1 L166R (from UniProt O49686 1-191) (receptor)
PYR1 L166T (from UniProt O49686 1-191) (receptor)
PYR1 K170I (from UniProt O49686 1-191) (receptor)
PYR1 D154G (from UniProt O49686 1-191) (receptor)
PYR1 I82K (from UniProt O49686 1-191) (receptor)
PYR1 K170A (from UniProt O49686 1-191) (receptor)
PYR1 I82F (from UniProt O49686 1-191) (receptor)
PYR1 L166S (from UniProt O49686 1-191) (receptor)
PYR1 K170H (from UniProt O49686 1-191) (receptor)
PYR1 D154W (from UniProt O49686 1-191) (receptor)
PYR1 K170S (from UniProt O49686 1-191) (receptor)
PYR1 L166P (from UniProt O49686 1-191) (receptor)
PYR1 L166E (from UniProt O49686 1-191) (receptor)
PYR1 M158D (from UniProt O49686 1-191) (receptor)
PYR1 K170Q (from UniProt O49686 1-191) (receptor)
PYR1 K63D (from UniProt O49686 1-191) (receptor)
PYR1 K63E (from UniProt O49686 1-191) (receptor)
PYR1 M158V (from UniProt O49686 1-191) (receptor)
PYR1 L166W (from UniProt O49686 1-191) (receptor)
PYR1 K170V (from UniProt O49686 1-191) (receptor)
PYR1 D154K (from UniProt O49686 1-191) (receptor)
PYR1 I82A (from UniProt O49686 1-191) (receptor)
PYR1 I84T (from UniProt O49686 1-191) (receptor)
PYR1 L166K (from UniProt O49686 1-191) (receptor)
PYR1 L166A (from UniProt O49686 1-191) (receptor)
PYR1 M158A (from UniProt O49686 1-191) (receptor)
PYR1 I84N (from UniProt O49686 1-191) (receptor)
PYR1 I82S (from UniProt O49686 1-191) (receptor)
PYR1 M158S (from UniProt O49686 1-191) (receptor)
PYR1 T162L (from UniProt O49686 1-191) (receptor)
PYR1 D154Q (from UniProt O49686 1-191) (receptor)
PYR1 K170D (from UniProt O49686 1-191) (receptor)
PYR1 L166F (from UniProt O49686 1-191) (receptor)
PYR1 T162W (from UniProt O49686 1-191) (receptor)
PYR1 D154H (from UniProt O49686 1-191) (receptor)
PYR1 L166N (from UniProt O49686 1-191) (receptor)
PYR1 M158H (from UniProt O49686 1-191) (receptor)
PYR1 D154R (from UniProt O49686 1-191) (receptor)
PYR1 L166Y (from UniProt O49686 1-191) (receptor)
PYR1 L166H (from UniProt O49686 1-191) (receptor)
PYR1 K170M (from UniProt O49686 1-191) (receptor)
PYR1 K170F (from UniProt O49686 1-191) (receptor)
PYR1 K170G (from UniProt O49686 1-191) (receptor)
PYR1 L166G (from UniProt O49686 1-191) (receptor)
PYR1 I84R (from UniProt O49686 1-191) (receptor)
PYR1 D154M (from UniProt O49686 1-191) (receptor)
PYR1 T162H (from UniProt O49686 1-191) (receptor)
PYR1 M158G (from UniProt O49686 1-191) (receptor)
PYR1 I84A (from UniProt O49686 1-191) (receptor)
PYR1 L166M (from UniProt O49686 1-191) (receptor)
PYR1 D154F (from UniProt O49686 1-191) (receptor)
PYR1 T162K (from UniProt O49686 1-191) (receptor)
PYR1 L166Q (from UniProt O49686 1-191) (receptor)
PYR1 K170Y (from UniProt O49686 1-191) (receptor)
PYR1 I84S (from UniProt O49686 1-191) (receptor)
PYR1 K170N (from UniProt O49686 1-191) (receptor)
PYR1 K170C (from UniProt O49686 1-191) (receptor)
PYR1 M158N (from UniProt O49686 1-191) (receptor)
PYR1 K63Q (from UniProt O49686 1-191) (receptor)
PYR1 M158W (from UniProt O49686 1-191) (receptor)
PYR1 I84D (from UniProt O49686 1-191) (receptor)
PYR1 T162M (from UniProt O49686 1-191) (receptor)
PYR1 K170E (from UniProt O49686 1-191) (receptor)
PYR1 K170R (from UniProt O49686 1-191) (receptor)

Reference: patent US20190359999A1
